Results reported in patent EP0324130A2 (RORER INTERNATIONAL (OVERSEAS) INC. (a Delaware corporation), priority 1987, dated 1989).

Assay: general procedure: Boc solid-phase peptide synthesis; BHA resin, amine titer 0.61 meq/g
Conditions: whole synthesis, relative area percent, scale of the general procedure 5 g resin, HCl salt

## Gly^8, Ala^16, des-Leu^19-SCT
  final HPLC purity: greater than 95%
